Data as given in PubChem BioAssay AID1224829 (NIAID, 2016)
Screen: 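Secondary check of hits that alter LPS-induced p65 translocation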 (follow-up of hits). Cell system: mouse RAW264.7 G9 macrophage reporter cells. Reagent: single siRNA against mouse genes, 100 nM. Duration: 2 days of siRNA knock-down, then 40 min of LPS before fixing. Challenge: LPS (Salmonella minnesota R595) at 10 ng/ml. Read-out: 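High-content images after 40 min LPS exposure; GFP-p65 nucleus to surrounding ring signal ratio, normalised to plate median and non-targeting control wells, expressed as z-score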. Direction: p65 translocation z-score: higher = more nuclear NF-kappaB p65 after LPS. Rule for the call: 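An siRNA is called active when the mean z-score of its two replicates is above 2 or below -2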. Meaning of the calls: active = changed p65 translocation (either direction); inactive = no clear change.
This is a random part of about 3,800 reagents tested. 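Calls cover raised and lowered translocation; gene median uses one vendor's three siRNAs; qiagen siRNAs acted more weakly than ambion siRNAs.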 Entries without a mark were called inactive. Reagents against one gene are numbered here. Not all columns of the deposit are shown.

For 5830411J07Rik #1, siRNA vendor or control pool qiagen single siRNA, the values are p65 translocation z-score, replicate mean -1.29; p65 translocation z-score, replicate 1 = -0.0261. With 5830411J07Rik #2, siRNA vendor or control pool qiagen single siRNA, the values are p65 translocation z-score, replicate mean -0.237; p65 translocation z-score, replicate 1 = -0.153. 5830411J07Rik #3, siRNA vendor or control pool qiagen single siRNA scored p65 translocation z-score, replicate mean -4.63 (active); p65 translocation z-score, replicate 1 = -4.58. With Cdh6 #1, siRNA vendor or control pool ambion single siRNA the deposit lists p65 translocation z-score, replicate mean -0.819; p65 translocation z-score, replicate 1 = -0.797. For Cdh6 #2, siRNA vendor or control pool ambion single siRNA, the values are p65 translocation z-score, replicate mean -2.07 (active); p65 translocation z-score, replicate 1 = -1.83. Cdh6 #3, siRNA vendor or control pool ambion single siRNA scored p65 translocation z-score, replicate mean -2; p65 translocation z-score, replicate 1 = -2.67.

For Or2z9 #1, siRNA vendor or control pool qiagen single siRNA, the entry reads p65 translocation z-score, replicate mean -1.19; p65 translocation z-score, replicate 1 = -0.672. With Or2z9 #2, siRNA vendor or control pool qiagen single siRNA, the entry reads p65 translocation z-score, replicate mean 1.2; p65 translocation z-score, replicate 1 = 1.19. With Or2z9 #3, siRNA vendor or control pool qiagen single siRNA, the values are p65 translocation z-score, replicate mean 1.17; p65 translocation z-score, replicate 1 = 0.508. Tnfrsf17 #1, siRNA vendor or control pool ambion single siRNA gave p65 translocation z-score, replicate mean -0.852; p65 translocation z-score, replicate 1 = -0.875. With Tnfrsf17 #2, siRNA vendor or control pool ambion single siRNA the deposit lists p65 translocation z-score, replicate mean -0.639; p65 translocation z-score, replicate 1 = -0.262. Tnfrsf17 #3, siRNA vendor or control pool ambion single siRNA scored p65 translocation z-score, replicate mean -1.03; p65 translocation z-score, replicate 1 = 1.67.

Tnfrsf17 #4, siRNA vendor or control pool qiagen single siRNA gave p65 translocation z-score, replicate mean -0.494; p65 translocation z-score, replicate 1 = -0.436. For Tnfrsf17 #5, siRNA vendor or control pool qiagen single siRNA, the entry reads p65 translocation z-score, replicate mean -1.87; p65 translocation z-score, replicate 1 = -0.688. For Tnfrsf17 #6, siRNA vendor or control pool qiagen single siRNA the deposit lists p65 translocation z-score, replicate mean 1.35; p65 translocation z-score, replicate 1 = 1.46. Numbl #1, siRNA vendor or control pool ambion single siRNA showed p65 translocation z-score, replicate mean -0.593; p65 translocation z-score, replicate 1 = 0.109. Numbl #2, siRNA vendor or control pool ambion single siRNA gave p65 translocation z-score, replicate mean -3.19 (active); p65 translocation z-score, replicate 1 = -3.19. For Numbl #3, siRNA vendor or control pool ambion single siRNA, the values are p65 translocation z-score, replicate mean -0.683; p65 translocation z-score, replicate 1 = 0.285.

With Numbl #4, siRNA vendor or control pool qiagen single siRNA, the values are p65 translocation z-score, replicate mean 1.55; p65 translocation z-score, replicate 1 = 1.81. Numbl #5, siRNA vendor or control pool qiagen single siRNA gave p65 translocation z-score, replicate mean -0.01; p65 translocation z-score, replicate 1 = -0.182. For Numbl #6, siRNA vendor or control pool qiagen single siRNA, the values are p65 translocation z-score, replicate mean -5.76 (active); p65 translocation z-score, replicate 1 = -5.76.

Sorted by “p65 translocation z-score, replicate mean” (descending): some entries from above.
Tnfrsf17 #2, siRNA vendor or control pool ambion single siRNA — p65 translocation z-score, replicate mean: -0.639; p65 translocation z-score, replicate 1: -0.262
Tnfrsf17 #1, siRNA vendor or control pool ambion single siRNA — p65 translocation z-score, replicate mean: -0.852; p65 translocation z-score, replicate 1: -0.875
